# The supplement of paper PMC8728848
# This is one part of the list.
# B1: Blon0732mut (Bifidobacterium longum) (protein)
# chain: MPTSEHKADDATRHLTLIPAPVTLEYTHGTALIGPLVTIEDADQSWETLPIEQLSDELRHRYGVTVLRRRTHGTVISLGLDSRLAHDEYTLDVSESEGIRVRGGGESGLRYGLQTLRQIIGQTSRAIPCLHIQDKPAFAVRAYSLDVTRGRVPTMEFLTWFVDQLALYKYNQFQLYVEHAFAFVELSEAWRGTDPLTAADITYLDEYCARRGIELVPSLATFGHMYMNLRTREHRGLGEFPEDADRPFSFIERMEHHTLNAADPKAHDFASRLIEEYAPLFRSKSFNIGGNETFDLGRGRSAQDAPEAGRDELYAGFVRDLCETLARHGRQPMLWADIALESPRTMDLLPGDITMLNWMYEPQIDESKIQTIATQGRRQFVCPAVRAWSRFFPDYAGAWLNTYHMALAGTKYDAEGMVVTDWGDYGHVNDPRLSVPGLCYGAQNAWNPIEIDAHEMNRRISALVYGDESGRIMDCLARIDSDGVSFPWDLAVQVLELEYGSGTGALNMDVAACMERSSGGKLTLDRTLGCDDARRRMLQWNRERIERRRDCDQVLRDCGDAFAGLDKGGLTAEFLSVMLDGQRLFNELGEELLALADGKDVGSGANRLAADLELWFERYRAQWLSVGRHAELARIAHVVWSLADILRRGAL
# Assays:
# Assay in all cases: glycan array binding signal (z-score within array); higher = stronger binding
# Conditions in all cases: glycan notation: IUPAC condensed, linker removed
# [1] = biological target: Neu5Ac(a2-3)Gal(b1-3)[Fuc(a1-4)]GlcNAc(b1-3)Gal(b1-3)[Fuc(a1-4)]GlcNAc
# In short: (§1)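 Glycan array binding is given as a within-array Z-score, which can be read as non-binding when negative. The arrays, 3228 of them, came from the Consortium for Functional Glycomics database and were retained only where the protein sequence was available. Z-scores were averaged across arrays of the same protein sequence at different concentrations or buffers and across linkers.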
# [2] = biological target: Neu5Ac(a2-3)Gal(b1-3)[Fuc(a1-4)]GlcNAc(b1-3)Gal(b1-4)[Fuc(a1-3)]GlcNAc
# In short: as §1
# [3] = biological target: Neu5Ac(a2-3)Gal(b1-3)[GlcNAc(b1-6)]GalNAc
# In short: as §1
# [4] = biological target: Neu5Ac(a2-3)Gal(b1-3)[Neu5Ac(a2-6)]GalNAc
# In short: as §1
# [5] = biological target: Neu5Ac(a2-3)Gal(b1-3)[Neu5Ac(a2-6)]GlcNAc(b1-3)[Fuc(a1-3)[Gal(b1-4)]GlcNAc(b1-6)]Gal(b1-4)Glc
# In short: as §1
# [6] = biological target: Neu5Ac(a2-3)Gal(b1-3)]Neu5Ac(a2-3)Gal(b1-4)]GlcNAc
# In short: as §1
# Neu5Ac(a2-3)Gal(b1-4)Glc = biological target: Neu5Ac(a2-3)Gal(b1-4)Glc
# In short: as §1
# [7] = biological target: Neu5Ac(a2-3)Gal(b1-4)GlcNAc
# In short: as §1
# [8] = biological target: Neu5Ac(a2-3)Gal(b1-4)GlcNAc(b1-2)Man
# In short: as §1
# [9] = biological target: Neu5Ac(a2-3)Gal(b1-4)GlcNAc(b1-2)Man(a1-3)[GlcNAc(b1-4)][Neu5Ac(a2-3)Gal(b1-4)GlcNAc(b1-2)Man(a1-6)]Man(b1-4)GlcNAc(b1-4)GlcNAc
# In short: as §1
# [10] = biological target: Neu5Ac(a2-3)Gal(b1-4)GlcNAc(b1-2)Man(a1-3)[Neu5Ac(a2-3)Gal(b1-4)GlcNAc(b1-2)Man(a1-6)]Man(b1-4)GlcNAc(b1-4)GlcNAc
# In short: as §1
# [11] = biological target: Neu5Ac(a2-3)Gal(b1-4)GlcNAc(b1-2)Man(a1-3)[Neu5Ac(a2-3)Gal(b1-4)GlcNAc(b1-2)Man(a1-6)]Man(b1-4)GlcNAc(b1-4)[Fuc(a1-6)]GlcNAc
# In short: as §1
# [12] = biological target: Neu5Ac(a2-3)Gal(b1-4)GlcNAc(b1-2)Man(a1-3)[Neu5Ac(a2-6)Gal(b1-4)GlcNAc(b1-2)Man(a1-6)]Man(b1-4)GlcNAc(b1-4)GlcNAc
# In short: as §1
# [13] = biological target: Neu5Ac(a2-3)Gal(b1-4)GlcNAc(b1-2)[Neu5Ac(a2-3)Gal(b1-4)GlcNAc(b1-2)]Man(a1-6)[Neu5Ac(a2-3)Gal(b1-4)GlcNAc(b1-2)Man(a1-3)][GlcNAc(b1-4)]Man(b1-4)GlcNAc(b1-4)GlcNAc
# In short: as §1
# [14] = biological target: Neu5Ac(a2-3)Gal(b1-4)GlcNAc(b1-2)[Neu5Ac(a2-3)Gal(b1-4)GlcNAc(b1-4)]Man(a1-3)[GlcNAc(b1-4)][Neu5Ac(a2-3)Gal(b1-4)GlcNAc(b1-2)[Neu5Ac(a2-3)Gal(b1-4)GlcNAc(b1-6)]Man(a1-6)]Man(b1-4)GlcNAc(b1-4)GlcNAc
# In short: as §1
# [15] = biological target: Neu5Ac(a2-3)Gal(b1-4)GlcNAc(b1-2)[Neu5Ac(a2-3)Gal(b1-4)GlcNAc(b1-4)]Man(a1-3)[GlcNAc(b1-4)][Neu5Ac(a2-3)Gal(b1-4)GlcNAc(b1-4)Man(a1-6)]Man(b1-4)GlcNAc(b1-4)GlcNAc
# In short: as §1
# [16] = biological target: Neu5Ac(a2-3)Gal(b1-4)GlcNAc(b1-2)[Neu5Ac(a2-3)Gal(b1-4)GlcNAc(b1-6)]Man(a1-6)[Neu5Ac(a2-3)Gal(b1-4)GlcNAc(b1-2)Man(a1-3)]Man(b1-4)GlcNAc(b1-4)GlcNAc
# In short: as §1
# [17] = biological target: Neu5Ac(a2-3)Gal(b1-4)GlcNAc(b1-3)Gal
# In short: as §1
# [18] = biological target: Neu5Ac(a2-3)Gal(b1-4)GlcNAc(b1-3)Gal(b1-3)GlcNAc
# In short: as §1
# [19] = biological target: Neu5Ac(a2-3)Gal(b1-4)GlcNAc(b1-3)Gal(b1-4)GlcNAc
# In short: as §1
# [20] = biological target: Neu5Ac(a2-3)Gal(b1-4)GlcNAc(b1-3)Gal(b1-4)GlcNAc(b1-2)Man(a1-3)[Neu5Ac(a2-3)Gal(b1-4)GlcNAc(b1-3)Gal(b1-4)GlcNAc(b1-2)Man(a1-6)]Man(b1-4)GlcNAc(b1-4)GlcNAc
# In short: as §1
# [21] = biological target: Neu5Ac(a2-3)Gal(b1-4)GlcNAc(b1-3)Gal(b1-4)GlcNAc(b1-3)Gal(b1-4)GlcNAc
# In short: as §1
# [22] = biological target: Neu5Ac(a2-3)Gal(b1-4)GlcNAc(b1-3)Gal(b1-4)GlcNAc(b1-3)Gal(b1-4)GlcNAc(b1-2)Man(a1-3)[Neu5Ac(a2-3)Gal(b1-4)GlcNAc(b1-3)Gal(b1-4)GlcNAc(b1-3)Gal(b1-4)GlcNAc(b1-2)Man(a1-6)]GalNAc
# In short: as §1
# [23] = biological target: Neu5Ac(a2-3)Gal(b1-4)GlcNAc(b1-3)Gal(b1-4)GlcNAc(b1-3)GalNAc
# In short: as §1
# [24] = biological target: Neu5Ac(a2-3)Gal(b1-4)GlcNAc(b1-3)Gal(b1-4)GlcNAc(b1-3)[Neu5Ac(a2-3)Gal(b1-4)GlcNAc(b1-3)Gal(b1-4)GlcNAc(b1-6)]GalNAc
# In short: as §1
# [25] = biological target: Neu5Ac(a2-3)Gal(b1-4)GlcNAc(b1-3)Gal(b1-4)GlcNAc(b1-6)[Gal(b1-3)]GalNAc
# In short: as §1
# [26] = biological target: Neu5Ac(a2-3)Gal(b1-4)GlcNAc(b1-3)Gal(b1-4)[Fuc(a1-3)]GlcNAc
# In short: as §1
# [27] = biological target: Neu5Ac(a2-3)Gal(b1-4)GlcNAc(b1-3)GalNAc
# In short: as §1
# [28] = biological target: Neu5Ac(a2-3)Gal(b1-4)GlcNAc(b1-3)[Neu5Ac(a2-3)Gal(b1-4)GlcNAc(b1-6)]GalNAc
# In short: as §1
# [29] = biological target: Neu5Ac(a2-3)Gal(b1-4)GlcNAc(b1-6)GalNAc
# In short: as §1
binder,measurement,setting,value
B1,glycan array binding signal (z-score),[1],-0.898
same,glycan array binding signal (z-score),[2],-0.002
same,glycan array binding signal (z-score),[3],-0.681
same,glycan array binding signal (z-score),[4],-0.432
same,glycan array binding signal (z-score),[5],-1.23
same,glycan array binding signal (z-score),[6],0.088
same,glycan array binding signal (z-score),Neu5Ac(a2-3)Gal(b1-4)Glc,1.48
same,glycan array binding signal (z-score),[7],-0.536
same,glycan array binding signal (z-score),[8],0.751
same,glycan array binding signal (z-score),[9],-0.016
same,glycan array binding signal (z-score),[10],-0.083
same,glycan array binding signal (z-score),[11],-1.14
same,glycan array binding signal (z-score),[12],-0.363
same,glycan array binding signal (z-score),[13],-1.45
same,glycan array binding signal (z-score),[14],-0.492
same,glycan array binding signal (z-score),[15],-0.394
same,glycan array binding signal (z-score),[16],1.28
same,glycan array binding signal (z-score),[17],-0.904
same,glycan array binding signal (z-score),[18],-0.715
same,glycan array binding signal (z-score),[19],-0.293
same,glycan array binding signal (z-score),[20],-0.481
same,glycan array binding signal (z-score),[21],-0.809
same,glycan array binding signal (z-score),[22],0.615
same,glycan array binding signal (z-score),[23],-0.716
same,glycan array binding signal (z-score),[24],-0.21
same,glycan array binding signal (z-score),[25],-0.226
same,glycan array binding signal (z-score),[26],-0.546
same,glycan array binding signal (z-score),[27],-0.609
same,glycan array binding signal (z-score),[28],-0.434
same,glycan array binding signal (z-score),[29],-0.433

# Shown with bars between the fields: entries from further up.
binder | measurement | setting | value
B1 | glycan array binding signal (z-score) | [4] | -0.432
same | glycan array binding signal (z-score) | [7] | -0.536
same | glycan array binding signal (z-score) | [8] | 0.751
same | glycan array binding signal (z-score) | [10] | -0.083
same | glycan array binding signal (z-score) | [23] | -0.716
same | glycan array binding signal (z-score) | [25] | -0.226
same | glycan array binding signal (z-score) | [26] | -0.546
same | glycan array binding signal (z-score) | [28] | -0.434
